In patent publication US4086196A (Armour Pharmaceutical Company, priority 1975, dated 1978):

Test: general procedure: Boc solid-phase peptide synthesis; Boc-phenylalanine resin; dicyclohexylcarbodiimide; p-nitrophenyl esters for Gln and Asn

PEPTIDE1{S.V.S.E.I.Q.L.M.H.N.L.G.K.H.L.N.S.M.E.R.V.E.W.L.R.K.K.L.Q.D.V.H.N.F}$$$$V2.0
step yield (purification step, based on yield of crude peptide recovered after cleavage): 10.5% | crude mass (whole synthesis): 1.65 g

Strings that start with PEPTIDE1 are HELM notation: dots part the residues, brackets hold end groups and non-standard residues.
